Laboratory results as given in PubChem BioAssay AID504467 (National Center for Advancing Translational Sciences (NCATS), 2011).
Hit rate of the full screen: of about 330,000 compounds, about 7,700 (2.3%) were called active. Inconclusive results, whose numbers are uncertain, are shown with a selection of clear calls. Calls come from the whole dose curve; as a rule, active = well fitted inhibition curve with a large enough effect; inconclusive = small, poorly fitted or top-dose-only effect, or effect the other way; inactive = flat fitted curve, though single readings scatter. Potencies beside an inconclusive call are fits to weak or partial responses and may not hold up.

test: qHTS screen for small molecules that inhibit ELG1-dependent DNA repair in human embryonic kidney (HEK293T) cells expressing luciferase-tagged ELG1; settings: HEK293T ELG1-luciferase reporter, luminescence, 16 h, DNA damage induced by 5-fluorouridine; activity change, negative = inhibition: at 46.1 µM (top of the series); note: nearly all actives have a fitted effect of over 55% in size
Outline: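 Reporter activity after DNA damage by 5-fluorouridine is monitored. Compound-treated cells incubate 16 hr at 37 °C, then ONE-Glo is added for 30 min before luminescence reading.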
% is set by controls: 0 for no effect and ±100 for the full control effect; potency is the fitted concentration of half-maximal effect.

Structure (SMILES) | Potency | activity change, negative = inhibition
Oc1cccc2ccc(/C=C/c3ccc(Br)s3)nc12 | inconclusive: 11.6 µM [activator, partial curve] | –
O=C(NCCc1ccccc1)c1ccc2c(c1)OCCO2 | inconclusive: 0.058 µM [activator, full curve, poor fit] | –
COc1ccc(NC(=O)N(Cc2cc3ccc(OC)cc3[nH]c2=O)CC2CCCO2)cc1 (stereo not drawn) | active: 10.3 µM | –
Cc1ccc(-c2cn(-c3ccc(OC(F)F)cc3)c3[n+]2CCCCC3)cc1 | active: 9.2 µM | –
CN(C)c1cccc2c1c(NC(=O)Nc1ccccc1)nn2C | inconclusive: 23.1 µM [inhibitor, partial curve, poor fit] | –
Cc1ccc(NC(=O)CN(C)C(=O)CSc2nnc(N)s2)cc1 | – | inactive: 16.8%
CCOC(=O)C1=C(N)Oc2c(c(=O)[nH]c3ccccc23)C1c1ccccc1 (stereo not drawn) | inconclusive: 29.1 µM [activator, partial curve, poor fit] | –
O=C(CSc1nc2c(cnn2-c2ccc(F)cc2)c(=O)[nH]1)N1CCOCC1 | – | inactive: 3.44%
COc1ccccc1CNC(=O)COc1ccccc1C(=O)c1cnn(-c2ccccc2)c1 | inconclusive: 29.1 µM [inhibitor, single point] | –
CCCn1c2ccc(F)cc2c2nnc(SCCN3CCOCC3)nc21 | – | inactive: -25.6%
CN(C)CCN(C(=O)c1ccc(S(=O)(=O)N(C)c2ccccc2)cc1)c1nc2ccc(Cl)cc2s1 | inconclusive: 18.3 µM [activator, partial curve] | –
Clc1ccc(-c2cnnc(-c3ccccn3)n2)cc1 | inconclusive: 5.8 µM [activator, full curve] | –
COc1cccc(-c2c(NC(=O)c3ccco3)oc3ccccc3c2=O)c1 | inconclusive: 0.366 µM [activator, full curve, poor fit] | –
CCc1ccc(C(=O)CSc2n[nH]c(-c3ccncc3)n2)cc1 | – | inactive: 0%
CC1(C)CC(NS(=O)(=O)c2ccc3ccccc3c2)CC(C)(C)N1 | – | inactive: -3.4%
Cc1ccc(C(=O)N/N=C/c2ccc(-c3cccc(C(F)(F)F)c3)o2)cn1 | inconclusive: 6.51 µM [inhibitor, single point] | –
CCN1C(=O)c2ccccc2Sc2ccc(C(=O)NCCC(C)C)cc21 | inconclusive: 4.11 µM [inhibitor, partial curve, poor fit] | –
COc1cc(-n2c(=O)c3ccccc3n(Cc3ccccc3)c2=O)cc(OC)c1OC | inconclusive: 29.1 µM [inhibitor, single point] | –
COc1ccc(NS(=O)(=O)c2ccc(-n3cnnn3)cc2)cc1OC | – | inactive: -17.6%
O=c1c2c3c(sc2ncn1/N=C/c1ccncc1)CCCC3 | – | inactive: -7.24%
COCc1c(C(=O)N/N=C\c2cccs2)nnn1-c1nonc1N | – | inactive: 3.29%
O=C(CCOc1ccccc1)Nc1ccnn1C1CCN(Cc2ccc(CO)o2)CC1 | inconclusive: 8.2 µM [inhibitor, partial curve] | –
O=C(CSc1nc2[nH]ncc2c(=O)[nH]1)c1ccc(Cl)cc1 | – | inactive: 7.15%

5 structures already listed, arranged by length of the SMILES, low to high.
Structure (SMILES) | Potency | activity change, negative = inhibition
Clc1ccc(-c2cnnc(-c3ccccn3)n2)cc1 | inconclusive: 5.8 µM [activator, full curve] | –
CN(C)c1cccc2c1c(NC(=O)Nc1ccccc1)nn2C | inconclusive: 23.1 µM [inhibitor, partial curve, poor fit] | –
COc1cccc(-c2c(NC(=O)c3ccco3)oc3ccccc3c2=O)c1 | inconclusive: 0.366 µM [activator, full curve, poor fit] | –
O=C(CSc1nc2c(cnn2-c2ccc(F)cc2)c(=O)[nH]1)N1CCOCC1 | – | inactive: 3.44%
Cc1ccc(C(=O)N/N=C/c2ccc(-c3cccc(C(F)(F)F)c3)o2)cn1 | inconclusive: 6.51 µM [inhibitor, single point] | –

(list continues)

Structure (SMILES) | Potency | activity change, negative = inhibition
COc1ccc(-c2ccc([C@H]3[C@H]4C=CC[C@@H](C)[C@@H]4C(=O)N3Cc3ccccc3)c(F)c2)cc1 | – | inactive: -3.93%
COc1cc(Nc2cc(C)nc3ncnn23)cc(OC)c1OC | inconclusive: 20.6 µM [activator, partial curve] | –
COc1ccc(CNC(=O)N2CCN(c3ccccc3OC)CC2)cc1 | – | inactive: -1.57%
CCOc1ccc2cc(C(=O)c3ccccc3)c(=O)oc2c1 | inconclusive: 20.6 µM [activator, partial curve] | –
CCc1nnc(N/N=C/c2ccccc2F)n1N | – | inactive: -27.9%
Cc1ccc(S(=O)(=O)NCc2ccc(C(=O)N3CCN(Cc4ccccc4)CC3)cc2)cc1 | inconclusive: 10.3 µM [inhibitor, partial curve] | –
CC(=O)c1c(C)n(CC(=O)NCc2ccco2)c2ccccc12 | inconclusive: 23.1 µM [inhibitor, partial curve] | –
O=S(=O)(c1ccc(-c2ccccn2)s1)N1CCC2(CC1)OCCO2 | inconclusive: 32.6 µM [inhibitor, single point] | –
Cc1nn(CC(=O)NCCc2ccccc2)c(=O)c2cc3occc3n12 | inconclusive: 20.6 µM [activator, partial curve, poor fit] | –
COCCN1C(=O)c2ccccc2C(C(=O)N2CCN(c3ccccn3)CC2)C1c1ccc(F)cc1 (stereo not drawn) | – | inactive: -23.9%
C[C@@H]1CC[C@]2(C(=O)O[C@@H]3O[C@H](CO)[C@@H](O)[C@H](O)[C@H]3O)CC[C@]3(C)C(=CCC4[C@@]5(C)CC[C@H](O[C@@H]6OC[C@H](O)[C@H](O[C@@H]7O[C@H](CO)[C@@H](O)[C@H](O)[C@H]7O)[C@H]6O)C(C)(C)C5CC[C@]43C)C2[C@]1(C)O (stereo partly drawn) | inconclusive: 18.3 µM [activator, single point] | –
O=C(COC(=O)c1ccc(Br)o1)Nc1cccc(S(=O)(=O)N2CCCCC2)c1 | – | inactive: 5.93%
C=CCn1c(SCCOc2ccccc2)nnc1C(C)NC(=O)c1ccccc1 (stereo not drawn) | – | inactive: -5.2%
CCOC(=O)CC1C(=O)NCCN1S(=O)(=O)c1ccc(Br)cc1 (stereo not drawn) | – | inactive: -7.72%
Cc1oc(-c2cccc(C(F)(F)F)c2)nc1CN1CCOCC1 | inconclusive: 16.4 µM [activator, partial curve] | –
CCCn1c(NCc2ccco2)nc2c1c(=O)n(C)c(=O)n2C | inconclusive: 20.6 µM [inhibitor, single point] | –
CN(c1ccc(F)cc1)S(=O)(=O)c1ccc(Cl)c(C(=O)NCc2ccco2)c1 | inconclusive: 23.1 µM [inhibitor, single point] | –
CC(C)c1cc(C(N)=O)c(NC(=O)c2cccc(COc3ccc(Br)cc3)c2)s1 | inconclusive: 2.06 µM [activator, partial curve] | –
COc1ccc(-c2nn[nH]n2)cc1OC | inconclusive: 23.1 µM [activator, partial curve, poor fit] | –
O=C1CN(C(=O)COC(=O)c2ccc(N3CCCCCC3)c([N+](=O)[O-])c2)c2ccccc2N1 | inconclusive: 29.1 µM [inhibitor, single point] | –
Cc1cc(NC(=O)CCC(=O)N(c2ccc(F)cc2)C(C(=O)NC2CCCC2)c2ccc(C)o2)no1 (stereo not drawn) | inconclusive: 16.4 µM [inhibitor, partial curve, poor fit] | –
COc1ccc(S(=O)(=O)Cc2ccc(C(=O)NCc3ccc(C)cc3)o2)cc1 | inconclusive: 18.3 µM [inhibitor, partial curve, poor fit] | –
O=C(N/N=C/c1cccs1)c1ccc2ncccc2c1 | inconclusive: 29.1 µM [activator, partial curve, poor fit] | –

Structure (SMILES) | Potency | activity change, negative = inhibition
O=C(CSc1nnc(-c2ccc(Br)cc2)o1)N1CCN(C(=O)c2ccco2)CC1 | active: 23.1 µM | –
CCC(C)NC(=O)C1CC(=O)N(CCc2ccc(F)cc2)C1 (stereo not drawn) | – | inactive: -0.652%
O=c1[nH]c(C2CCN(S(=O)(=O)c3ccc([N+](=O)[O-])cc3)CC2)nc2c1nnn2Cc1ccccc1 | inconclusive: 23.1 µM [inhibitor, single point] | –
CCn1cc(C(=O)NCCC2=CCCCC2)c(=O)c2cc(S(=O)(=O)N(C)C)ccc21 | inconclusive: 25.9 µM [inhibitor, partial curve, poor fit] | –
CCN=c1scc(-c2ccccc2)n1/N=C/c1ccccn1 | inconclusive: 0.651 µM [activator, full curve] | –
CCOC(=O)N1CCN(Cc2nc3c(c(=O)n(C)c(=O)n3C)n2Cc2ccccc2C)CC1 | inconclusive: 32.6 µM [inhibitor, partial curve, poor fit] | –
CC1CCN(c2ccc(NC(=O)c3ccc(Br)o3)cc2)CC1 | inconclusive: 3.66 µM [activator, full curve] | –
CCCCn1c(N)c(N(CCOC)C(=O)C2CCN(S(=O)(=O)c3ccccc3)CC2)c(=O)[nH]c1=O | – | inactive: -0.747%
CCCN1CCc2c(sc(NC(=O)c3ccc(S(=O)(=O)N4CCN(C(=O)OCC)CC4)cc3)c2C(N)=O)C1 | inconclusive: 29.1 µM [activator, single point] | –
FC(F)(F)c1ccc(Oc2ccc3cc(Br)ccc3c2)nc1 | inconclusive: 29.1 µM [activator, single point] | –
COc1ccc2c(c1)OC/C(=C/c1cccs1)C2=O | inconclusive: 11.6 µM [activator, partial curve] | –
S=c1[nH]cc(-c2ccccc2)n1-c1ccccc1 | – | inactive: 0.659%
CCOc1ccc(-c2c(C(=O)N/N=C(\C)c3cccs3)nnn2-c2nonc2N)cc1 | inconclusive: 20.6 µM [activator, partial curve, poor fit] | –
Cc1ccc(NC(=O)Nc2ccc3c(c2)CCC3)cc1 | inconclusive: 16.4 µM [activator, partial curve] | –
CC(=O)NN1C(=O)c2ccccc2NC1c1ccc(N(C)C)cc1 (stereo not drawn) | inconclusive: 7.3 µM [activator, partial curve] | –
CN(C)c1nc2sc3c(c2c(=O)n1C)CC(C)(C)OC3 | inconclusive: 9.2 µM [activator, partial curve] | –
COc1ccc([N+](=O)[O-])cc1NS(=O)(=O)c1ccccc1 | – | inactive: 16.7%
CCn1c(=O)n(-c2ccc(Cl)cc2)c(=O)c2c3c(sc21)COC(C)(C)C3 | – | inactive: -20.8%
Cc1cc(C(=O)N/N=C/c2cn[nH]c2-c2ccccc2)cs1 | inconclusive: 1.46 µM [inhibitor, full curve] | –
COC(=O)c1sccc1NC(=O)Nc1cccc(C)c1 | – | inactive: 12.3%
CS(=O)(=O)c1ccc(Cl)c(NC(=O)C2CCCCN2S(=O)(=O)c2ccccc2)c1 (stereo not drawn) | – | inactive: -1.41%
O=S(=O)([O-])CCC[n+]1ccc(Oc2ccccc2)cc1 | inconclusive: 29.1 µM [inhibitor, single point] | –
